Experimental findings from paper PMC10411469 are described below.

The chains behind the UniProt entries cited, without tags or fusion partners.
UniProt P40763: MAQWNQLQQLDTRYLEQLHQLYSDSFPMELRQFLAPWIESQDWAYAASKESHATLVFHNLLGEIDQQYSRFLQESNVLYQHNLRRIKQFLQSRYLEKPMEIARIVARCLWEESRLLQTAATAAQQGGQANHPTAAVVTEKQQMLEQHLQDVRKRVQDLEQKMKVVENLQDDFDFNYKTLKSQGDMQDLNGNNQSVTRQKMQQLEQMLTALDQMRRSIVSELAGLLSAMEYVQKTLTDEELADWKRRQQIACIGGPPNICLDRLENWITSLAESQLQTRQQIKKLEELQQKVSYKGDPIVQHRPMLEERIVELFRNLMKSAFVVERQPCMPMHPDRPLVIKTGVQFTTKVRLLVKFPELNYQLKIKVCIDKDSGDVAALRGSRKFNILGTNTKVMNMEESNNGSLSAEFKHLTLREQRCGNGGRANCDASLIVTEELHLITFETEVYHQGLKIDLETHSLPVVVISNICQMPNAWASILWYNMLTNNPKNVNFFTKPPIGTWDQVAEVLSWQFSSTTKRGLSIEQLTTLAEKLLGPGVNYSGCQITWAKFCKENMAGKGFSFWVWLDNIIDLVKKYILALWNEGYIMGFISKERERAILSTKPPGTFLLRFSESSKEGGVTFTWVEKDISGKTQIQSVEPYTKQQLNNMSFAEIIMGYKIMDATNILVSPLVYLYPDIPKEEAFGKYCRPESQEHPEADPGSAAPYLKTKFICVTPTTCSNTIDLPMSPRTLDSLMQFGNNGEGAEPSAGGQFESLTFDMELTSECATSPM

Results are given in words; binding and its absence hold for the method and conditions named. Binding seen in cells or lysates may run through a third protein. Some entries that bind do so weakly or less than the wild type.

For test [1], the target named is T1, exogenously expressed FIBP (FGF1 intracellular binding protein) (UniProt O43427).
T1 sequence: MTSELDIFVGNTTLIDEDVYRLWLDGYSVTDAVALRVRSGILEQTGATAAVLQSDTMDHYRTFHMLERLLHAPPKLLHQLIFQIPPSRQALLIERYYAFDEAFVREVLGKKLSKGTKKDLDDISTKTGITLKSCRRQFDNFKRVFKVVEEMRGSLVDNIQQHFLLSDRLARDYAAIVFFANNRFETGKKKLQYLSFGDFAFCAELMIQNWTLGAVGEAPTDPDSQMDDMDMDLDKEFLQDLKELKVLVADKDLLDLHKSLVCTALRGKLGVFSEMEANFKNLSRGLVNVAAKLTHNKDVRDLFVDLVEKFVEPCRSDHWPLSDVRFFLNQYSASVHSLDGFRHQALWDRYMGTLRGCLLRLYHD
Put plainly: co-IP; H1299 cell lysates in NETN buffer (20 mM Tris-HCl pH 8.0, 100 mM NaCl, 1 mM EDTA, 0.5% Nonidet P-40); S-protein agarose or primary antibodies plus protein A/G agarose; western blot. In general terms: In western blotting, separated proteins are transferred to a membrane and probed.

Test [2] addresses exogenously expressed STAT3 (signal transducer and activator of transcription 3) (UniProt P40763). Described as above.
The target of test [3] is recombinant GST-tagged STAT3 (UniProt P40763). Put plainly: pull-down; purified GST-STAT3 (or GST) immobilised on Glutathione-Sepharose 4B beads, incubated with lysates of cells transfected with SFB-FIBP overnight at 4°C; immunoblot; only the target purified.
For test [4], the target named is endogenous STAT3 (human (endogenous in H1299)) (UniProt P40763). Kind of test: co-IP; H1299 cell lysates in NETN buffer (20 mM Tris-HCl pH 8.0, 100 mM NaCl, 1 mM EDTA, 0.5% Nonidet P-40); S-protein agarose or primary antibodies plus protein A/G agarose; western blot.

Turning to “endogenous STAT3 (from UniProt P40763 1-770)”, the binding result in test [1] is reported as “binds”.

Take “exogenously expressed STAT3 (signal transducer and activator of transcription 3) (from UniProt P40763 1-770)”: the binding result in test [1] is “binds”.

B1: exogenously expressed FIBP (FGF1 intracellular binding protein) (protein, UniProt O43427 1-364)
chain: MTSELDIFVGNTTLIDEDVYRLWLDGYSVTDAVALRVRSGILEQTGATAAVLQSDTMDHYRTFHMLERLLHAPPKLLHQLIFQIPPSRQALLIERYYAFDEAFVREVLGKKLSKGTKKDLDDISTKTGITLKSCRRQFDNFKRVFKVVEEMRGSLVDNIQQHFLLSDRLARDYAAIVFFANNRFETGKKKLQYLSFGDFAFCAELMIQNWTLGAVGEAPTDPDSQMDDMDMDLDKEFLQDLKELKVLVADKDLLDLHKSLVCTALRGKLGVFSEMEANFKNLSRGLVNVAAKLTHNKDVRDLFVDLVEKFVEPCRSDHWPLSDVRFFLNQYSASVHSLDGFRHQALWDRYMGTLRGCLLRLYHD
As for B1, the binding entry in test [2] is on record as “binds”.

B2: SFB-FIBP (protein, UniProt O43427 1-364)
chain: MTSELDIFVGNTTLIDEDVYRLWLDGYSVTDAVALRVRSGILEQTGATAAVLQSDTMDHYRTFHMLERLLHAPPKLLHQLIFQIPPSRQALLIERYYAFDEAFVREVLGKKLSKGTKKDLDDISTKTGITLKSCRRQFDNFKRVFKVVEEMRGSLVDNIQQHFLLSDRLARDYAAIVFFANNRFETGKKKLQYLSFGDFAFCAELMIQNWTLGAVGEAPTDPDSQMDDMDMDLDKEFLQDLKELKVLVADKDLLDLHKSLVCTALRGKLGVFSEMEANFKNLSRGLVNVAAKLTHNKDVRDLFVDLVEKFVEPCRSDHWPLSDVRFFLNQYSASVHSLDGFRHQALWDRYMGTLRGCLLRLYHD
Turning to B2, the binding result in test [3] was “binds”.

B3: endogenous FIBP (protein, UniProt O43427 1-364)
chain: MTSELDIFVGNTTLIDEDVYRLWLDGYSVTDAVALRVRSGILEQTGATAAVLQSDTMDHYRTFHMLERLLHAPPKLLHQLIFQIPPSRQALLIERYYAFDEAFVREVLGKKLSKGTKKDLDDISTKTGITLKSCRRQFDNFKRVFKVVEEMRGSLVDNIQQHFLLSDRLARDYAAIVFFANNRFETGKKKLQYLSFGDFAFCAELMIQNWTLGAVGEAPTDPDSQMDDMDMDLDKEFLQDLKELKVLVADKDLLDLHKSLVCTALRGKLGVFSEMEANFKNLSRGLVNVAAKLTHNKDVRDLFVDLVEKFVEPCRSDHWPLSDVRFFLNQYSASVHSLDGFRHQALWDRYMGTLRGCLLRLYHD
On to B3, for which the binding entry in test [2] and in test [4] was “binds” each time.
